The list does not hold the whole screen: it gathers tests that were run many times, whatever their T/C, doses with no T/C, and many T/C values between a quarter and a half above the control. Other doses and runs of a compound stand elsewhere. T/C: endpoint of the treated group in % of that of the vehicle group. Some entries give survivors of the animals treated and no T/C: the source holds a T/C of zero for them, seemingly a mark for toxic or unscored doses. Some survivor counts are full or nearly so, which does not show that the dose was tolerated: survival well below the control is almost never listed, so the zero probably covers shortened survival too. Counts of survivors are from the toxicity check (mostly the fifth day) where no day follows; animals may have died later. Schedules are NCI's codes, read here as Q, the interval in days (D) or hours (H), X, the number of doses. Some entries hold several experiments; their values stand side by side, smallest first. Where survival is the endpoint, this PubChem deposit counts one and a half times the control or more as active, and values a quarter to a half above the control carry no call in these data; other NCI protocols may use other cut-offs.
Tested on: L1210 leukemia ip in BDF1 mice, survival T/C
Experiment: NCI In Vivo Anticancer Drug Screen. Data for tumor model L1210 Leukemia (intraperitoneal) in B6D2F1 (BDF1) mice
Details: T/C endpoint: mean survival time, higher T/C = longer survival
[1] = dose: 150.0 mg/kg/injection, schedule: Q04DX003 (ip), vehicle: Klucel (hydroxypropylcellulose) (HPC)
[2] = dose: 400.0 mg/kg/injection, schedule: Q01DX001 (ip), vehicle: carboxymethylcellulose (CMC)

Q: With `NC(=S)N/N=C1\CC(c2ccccc2)Oc2ccccc21` (centres undefined) as the compound, how does the survivor count (dose: 200.0 mg/kg/injection, schedule: Q01DX001 (ip), vehicle: saline) read?
A: 1 of 6

Q: What about the survivor count (dose: 400.0 mg/kg/injection, schedule: Q01DX001 (ip), vehicle: saline) of the same compound?
A: 0 of 6

Q: For `CSc1ncnc2nncnc12`, which survivor count (dose: 80.0 mg/kg/injection, schedule: Q01DX001 (ip), vehicle: other) is on record?
A: 0 of 4

Q: What about the survivor count (dose: 100.0 mg/kg/injection, schedule: Q01DX001 (ip), vehicle: other) of the same compound?
A: 0 of 4

Q: And the survivor count (dose: 200.0 mg/kg/injection, schedule: Q01DX001 (ip), vehicle: other)?
A: 0 of 4

Q: And the survivor count (dose: 400.0 mg/kg/injection, schedule: Q01DX001 (ip), vehicle: other)?
A: 0 of 4

Q: Which T/C (dose: 60.0 mg/kg/injection, schedule: Q01DX009 (ip), vehicle: Klucel (hydroxypropylcellulose) (HPC)) does the source give for `C#CCN(C)/N=N/c1nc[nH]c1C(N)=O` here?
A: 141 % of control

Q: And the T/C (dose: 100.0 mg/kg/injection, schedule: Q01DX009 (ip), vehicle: Klucel (hydroxypropylcellulose) (HPC))?
A: 141 % of control

Q: What about the T/C [1] of the same compound?
A: 135 % of control

Q: What about the survivor count [1] of the same compound?
A: 6 of 6

Q: And the T/C (dose: 200.0 mg/kg/injection, schedule: Q01DX009 (ip), vehicle: Klucel (hydroxypropylcellulose) (HPC))?
A: 146 % of control

Q: What about the T/C (dose: 200.0 mg/kg/injection, schedule: Q04DX003 (ip), vehicle: Klucel (hydroxypropylcellulose) (HPC)) of the same compound?
A: 138 % of control

Q: And the survivor count (dose: 300.0 mg/kg/injection, schedule: Q01DX009 (ip), vehicle: Klucel (hydroxypropylcellulose) (HPC))?
A: 2 of 6

Q: What about the survivor count (dose: 300.0 mg/kg/injection, schedule: Q04DX003 (ip), vehicle: Klucel (hydroxypropylcellulose) (HPC)) of the same compound?
A: 3 of 6 and 6 of 6

Q: And the survivor count (dose: 500.0 mg/kg/injection, schedule: Q04DX003 (ip), vehicle: Klucel (hydroxypropylcellulose) (HPC))?
A: 0 of 6

Q: And the survivor count (dose: 600.0 mg/kg/injection, schedule: Q04DX003 (ip), vehicle: Klucel (hydroxypropylcellulose) (HPC))?
A: 1 of 6

Q: For `Cc1ccc(C(=O)C(Br)C(Br)c2ccccc2)cc1` (centres undefined), which survivor count (dose: 400.0 mg/kg/injection, schedule: Q01DX009 (ip), vehicle: saline with Tween-80) is on record?
A: 2 of 6

Q: With `Nc1nc(Cl)c(C=O)c(Cl)n1` as the compound, how does the survivor count (dose: 50.0 mg/kg/injection, schedule: Q01DX001 (ip), vehicle: carboxymethylcellulose (CMC)) read?
A: 2 of 4

Q: What about the survivor count (dose: 100.0 mg/kg/injection, schedule: Q01DX001 (ip), vehicle: carboxymethylcellulose (CMC)) of the same compound?
A: 2 of 4

Q: What about the survivor count (dose: 200.0 mg/kg/injection, schedule: Q01DX001 (ip), vehicle: carboxymethylcellulose (CMC)) of the same compound?
A: 1 of 4

Q: What about the survivor count [2] of the same compound?
A: 0 of 4

Q: How did the survivor count (dose: 400.0 mg/kg/injection, schedule: Q01DX001 (ip), vehicle: Klucel (hydroxypropylcellulose) (HPC)) turn out when `Cc1ccc(C(C)C)c(O)c1C(=O)O` was run?
A: 0 of 6

Q: What does the source list for `CCN(CC)CCCOP(=O)(N(CC)CC)N(CCCl)CCCl` (centres undefined)?
A: survivor count (dose: 300.0 mg/kg/injection, schedule: Q01DX001 (ip), vehicle: saline with Tween-80): 0 of 6; survivor count (dose: 450.0 mg/kg/injection, schedule: Q01DX001 (ip), vehicle: saline with Tween-80): 0 of 6

Q: For `CN1CCCCC1CCN1c2ccccc2Sc2ccc(Cl)cc21` (centres undefined), which survivor count (dose: 50.0 mg/kg/injection, schedule: Q01DX009 (ip), vehicle: saline) is on record?
A: 2 of 6

Q: For `C[n+]1ccc(N2CCCCC2)c2ccc(Cl)cc21`, which survivor count (dose: 4.0 mg/kg/injection, schedule: Q01DX001 (ip), vehicle: saline) is on record?
A: 0 of 6

Q: What about the survivor count (dose: 8.0 mg/kg/injection, schedule: Q01DX001 (ip), vehicle: saline) of the same compound?
A: 0 of 6

Q: What about the survivor count (dose: 10.0 mg/kg/injection, schedule: Q01DX001 (ip), vehicle: saline) of the same compound?
A: 0 of 6

Q: And the survivor count (dose: 20.0 mg/kg/injection, schedule: Q01DX001 (ip), vehicle: saline)?
A: 2 of 6

Q: And the survivor count (dose: 40.0 mg/kg/injection, schedule: Q01DX001 (ip), vehicle: saline)?
A: 0 of 6

Q: What about the survivor count (dose: 75.0 mg/kg/injection, schedule: Q01DX001 (ip), vehicle: saline) of the same compound?
A: 0 of 6

Q: What about the survivor count (dose: 150.0 mg/kg/injection, schedule: Q01DX001 (ip), vehicle: saline) of the same compound?
A: 0 of 6

Q: And the survivor count (dose: 300.0 mg/kg/injection, schedule: Q01DX001 (ip), vehicle: saline)?
A: 0 of 6

Q: How did the survivor count (dose: 25.0 mg/kg/injection, schedule: Q01DX009 (ip), vehicle: water) turn out when `O=C(NC1CSSC1)C(Cc1ccccc1)N1C(=O)c2ccccc2C1=O` (centres undefined) was run?
A: 2 of 6

Q: What does the source list for `CC(C)CC(CO)Cc1nc2ccccc2[nH]1` (centres undefined)?
A: survivor count (dose: 100.0 mg/kg/injection, schedule: Q04DX002 (ip), vehicle: Klucel (hydroxypropylcellulose) (HPC)): 3 of 3; survivor count (dose: 400.0 mg/kg/injection, schedule: Q04DX002 (ip), vehicle: other): 0 of 6; survivor count (dose: 400.0 mg/kg/injection, schedule: Q04DX003 (ip), vehicle: other): 2 of 6

Q: With `CC1(C)CC(C)(c2ccc(O)cc2)Oc2ccccc21` (centres undefined) as the compound, how does the survivor count (dose: 400.0 mg/kg/injection, schedule: Q04DX003 (ip), vehicle: saline with Tween-80) read?
A: 2 of 3

Q: How did the survivor count (dose: 100.0 mg/kg/injection, schedule: Q01DX009 (ip), vehicle: saline with Tween-80) turn out when `O=C(c1ccccc1)c1cc(-c2ccccc2)n(C2CCCCC2)c1` was run?
A: 3 of 3

Q: With `O=NN(CCCl)C(=O)NCc1ccc(-c2ccc(CNC(=O)N(CCCl)N=O)cc2)cc1` as the compound, how does the T/C (dose: 52.0 mg/kg/injection, schedule: Q01DX001 (ip), vehicle: other) read?
A: 138 % of control

Q: And the T/C (dose: 78.0 mg/kg/injection, schedule: Q01DX001 (ip), vehicle: other)?
A: 134 % of control

Q: And the T/C (dose: 118.0 mg/kg/injection, schedule: Q01DX001 (ip), vehicle: other)?
A: 145 % of control

Q: And the T/C (dose: 118.0 mg/kg/injection, schedule: Q01DX009 (ip), vehicle: carboxymethylcellulose (CMC))?
A: 131 % of control

Q: And the T/C (dose: 177.0 mg/kg/injection, schedule: Q01DX001 (ip), vehicle: carboxymethylcellulose (CMC))?
A: 128 % of control

Q: What about the T/C (dose: 177.0 mg/kg/injection, schedule: Q01DX009 (ip), vehicle: carboxymethylcellulose (CMC)) of the same compound?
A: 134 % of control

Q: And the T/C (dose: 266.0 mg/kg/injection, schedule: Q01DX001 (ip), vehicle: carboxymethylcellulose (CMC))?
A: 142 % of control

Q: And the T/C (dose: 266.0 mg/kg/injection, schedule: Q01DX009 (ip), vehicle: carboxymethylcellulose (CMC))?
A: 139 % of control

Q: And the T/C [2]?
A: 135 % of control

Q: What about the T/C (dose: 600.0 mg/kg/injection, schedule: Q01DX001 (ip), vehicle: carboxymethylcellulose (CMC)) of the same compound?
A: 143 % of control
